This test concerns the target MOD-1 channel (Caenorhabditis elegans, UniProt Q9GQ00). The test can be described thus: Voltage clamp of MOD-1 heterologously expressed in Xenopus oocytes or HEK cells. The class given is cell-based, C. elegans.

Protein sequences, listed by entry. Tags and fused reporters are not part of them. Lines headed by an entry give the natural chain unless they say otherwise; changes in a name come on top.
UniProt Q9GQ00: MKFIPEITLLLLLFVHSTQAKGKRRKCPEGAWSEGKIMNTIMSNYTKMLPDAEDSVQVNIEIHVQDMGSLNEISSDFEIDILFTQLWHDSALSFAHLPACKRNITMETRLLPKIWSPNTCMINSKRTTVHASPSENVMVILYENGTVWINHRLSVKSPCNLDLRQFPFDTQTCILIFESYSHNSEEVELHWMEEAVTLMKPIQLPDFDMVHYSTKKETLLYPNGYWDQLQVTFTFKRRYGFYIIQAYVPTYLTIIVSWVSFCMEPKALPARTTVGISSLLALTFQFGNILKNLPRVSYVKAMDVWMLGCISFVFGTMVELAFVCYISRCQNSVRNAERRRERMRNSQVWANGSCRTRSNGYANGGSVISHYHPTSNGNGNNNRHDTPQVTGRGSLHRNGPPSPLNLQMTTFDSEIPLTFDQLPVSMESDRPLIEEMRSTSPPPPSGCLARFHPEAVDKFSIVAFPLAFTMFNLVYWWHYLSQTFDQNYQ

This passage reports Ki results from US7026466B1, “Serotonin-gated anion channel” (Massachusetts Institute of Technology, priority 1999, dated 2006).

The compound `CN1CCN2c3ccccc3Cc3ccccc3C2C1` (stereo not shown) [mianserin] registered a Ki of about 19 µM.
